Reference: PubChem BioAssay AID1259308 (NCATS, 2017)

Test: 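Knock-downs that increase output of a recombinant reporter protein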 (primary screen)
Cells: human HEK293 embryonic kidney cells stably expressing firefly luciferase (HEK-CMV-Luc2-Hygro)
Knock-down reagent: single siRNA against human genes, 0.8 pmol siRNA per well
Time to read-out: 72 h
Detection: 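Luciferase light (ONE-Glo) measured on one replicate plate set and viability (CellTiter-Glo) on the other, scaled to a negative control siRNA, with robust z-scores and luciferase per cell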
Direction: total luciferase, z-score and total luciferase, % of control: higher = more reporter protein produced
Rule for the call: 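An siRNA counts as active if its total luciferase robust z-score exceeds 3; genes with two or more such siRNAs out of three were retested with fresh siRNAs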
Calls: active = raised luciferase; inactive = no rise
Shown is a random part of about 59,000 reagents tested. About 1,510 of them (2.6%) count as active. 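Calls use total luciferase alone and ignore viability, so some active siRNAs may act by altering cell number.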 The numbers tell different reagents against one gene apart. Further read-outs or replicates are left out here. Reagent sequences are not shown.

| Target gene | reagent | total luciferase, z-score | total luciferase, % of control | outcome |
| --- | --- | --- | --- | --- |
| BTC (betacellulin) | 1 | -0.265 | 76.6 | inactive |
| BTC (betacellulin) | 2 | -0.644 | 69.1 | inactive |
| BTC (betacellulin) | 3 | 0.569 | 93.2 | inactive |
| TAS2R38 (taste 2 receptor member 38) | 1 | 1.67 | 115 | inactive |
| TAS2R38 (taste 2 receptor member 38) | 2 | -0.3 | 75.9 | inactive |
| TAS2R38 (taste 2 receptor member 38) | 3 | 3.94 | 160 | active |
| ADAMTS15 (ADAM metallopeptidase with thrombospondin type 1 motif 15) | 1 | 0.669 | 95.2 | inactive |
| ADAMTS15 (ADAM metallopeptidase with thrombospondin type 1 motif 15) | 2 | -0.363 | 74.7 | inactive |
| ADAMTS15 (ADAM metallopeptidase with thrombospondin type 1 motif 15) | 3 | -0.729 | 67.4 | inactive |
| AP3D1 (adaptor related protein complex 3 subunit delta 1) | 1 | 1.11 | 104 | inactive |
| AP3D1 (adaptor related protein complex 3 subunit delta 1) | 2 | 0.522 | 92.3 | inactive |
| AP3D1 (adaptor related protein complex 3 subunit delta 1) | 3 | -0.853 | 64.9 | inactive |
| ITPR2 (inositol 1,4,5-trisphosphate receptor type 2) | 1 | -0.534 | 71.3 | inactive |
| ITPR2 (inositol 1,4,5-trisphosphate receptor type 2) | 2 | 0.166 | 85.2 | inactive |
| ITPR2 (inositol 1,4,5-trisphosphate receptor type 2) | 3 | -0.631 | 69.3 | inactive |
| CPLX1 (complexin 1) | 1 | -0.883 | 64.3 | inactive |
| CPLX1 (complexin 1) | 2 | -0.384 | 74.3 | inactive |
| CPLX1 (complexin 1) | 3 | 0.124 | 84.4 | inactive |
| POLR1C (RNA polymerase I and III subunit C) | 1 | -0.831 | 65.4 | inactive |
| POLR1C (RNA polymerase I and III subunit C) | 2 | 0.599 | 93.8 | inactive |
| POLR1C (RNA polymerase I and III subunit C) | 3 | 1.46 | 111 | inactive |
| SEC23A (SEC23 homolog A, COPII component) | 1 | -0.0718 | 80.5 | inactive |
| SEC23A (SEC23 homolog A, COPII component) | 2 | -0.61 | 69.7 | inactive |
| SEC23A (SEC23 homolog A, COPII component) | 3 | 0.148 | 84.8 | inactive |
| ATRIP (ATR interacting protein) | 1 | 0.831 | 98.4 | inactive |
| ATRIP (ATR interacting protein) | 2 | 1.65 | 115 | inactive |
| ATRIP (ATR interacting protein) | 3 | 1.26 | 107 | inactive |
| RGS1 (regulator of G protein signaling 1) | 1 | -0.269 | 76.5 | inactive |
| RGS1 (regulator of G protein signaling 1) | 2 | -0.684 | 68.3 | inactive |
| RGS1 (regulator of G protein signaling 1) | 3 | -0.842 | 65.1 | inactive |
| ATG4B (autophagy related 4B cysteine peptidase) | 1 | -1.87 | 44.7 | inactive |
| ATG4B (autophagy related 4B cysteine peptidase) | 2 | -1.74 | 47.3 | inactive |
| ATG4B (autophagy related 4B cysteine peptidase) | 3 | 0.807 | 97.9 | inactive |
| UCP3 (uncoupling protein 3) | 1 | 0.342 | 88.7 | inactive |
| UCP3 (uncoupling protein 3) | 2 | -0.472 | 72.5 | inactive |
| UCP3 (uncoupling protein 3) | 3 | 0.0205 | 82.3 | inactive |
| PUS7L (pseudouridine synthase 7 like) | 1 | -0.167 | 78.6 | inactive |
| PUS7L (pseudouridine synthase 7 like) | 2 | 0.163 | 85.1 | inactive |
| PUS7L (pseudouridine synthase 7 like) | 3 | -0.177 | 78.4 | inactive |
| CENPH (centromere protein H) | 1 | 2.87 | 139 | inactive |
| CENPH (centromere protein H) | 2 | 0.151 | 84.9 | inactive |
| CENPH (centromere protein H) | 3 | -0.187 | 78.2 | inactive |
| METTL2A (methyltransferase 2A, tRNA N3-cytidine) | 1 | -0.975 | 62.5 | inactive |
| METTL2A (methyltransferase 2A, tRNA N3-cytidine) | 2 | -0.467 | 72.6 | inactive |
| METTL2A (methyltransferase 2A, tRNA N3-cytidine) | 3 | -0.554 | 70.9 | inactive |
| NDUFB4 (NADH:ubiquinone oxidoreductase subunit B4) | 1 | -0.436 | 73.2 | inactive |
| NDUFB4 (NADH:ubiquinone oxidoreductase subunit B4) | 2 | 3.2 | 146 | active |
| NDUFB4 (NADH:ubiquinone oxidoreductase subunit B4) | 3 | -0.0303 | 81.3 | inactive |
| TMEM263 (transmembrane protein 263) | 1 | -1.29 | 56.3 | inactive |
| TMEM263 (transmembrane protein 263) | 2 | 0.557 | 93 | inactive |
| TMEM263 (transmembrane protein 263) | 3 | -0.322 | 75.5 | inactive |
| ARHGDIB (Rho GDP dissociation inhibitor beta) | 1 | 1.79 | 117 | inactive |
| ARHGDIB (Rho GDP dissociation inhibitor beta) | 2 | -0.0533 | 80.8 | inactive |
| ARHGDIB (Rho GDP dissociation inhibitor beta) | 3 | -0.97 | 62.6 | inactive |
| LOC401068 (retired record) | 1 | 0.0221 | 82.3 | inactive |
| LOC401068 (retired record) | 2 | 0.339 | 88.6 | inactive |
| LOC401068 (retired record) | 3 | 0.0994 | 83.9 | inactive |
